The structures appear in SMILES notation.

For this series, the system named is Male Zucker diabetic fatty (ZDF) rats. Kind of series: Test Example 1: elimination of blood lactate after intravenous sodium lactate load (blood lactate AUC 0 to 60 minutes). Type of series: in vivo. The settings on record: Group A: Compound A 300 mg/kg oral, 1 hour before sodium lactate 0.1 g/kg i.v., compared with control group (P<0.05, t-test), FIG. 1. The text has this:
Improvement Effects by Concomitant Use of 5-{4-[(6-methoxy-1-methyl-1H-benzimidazol-2-yl)methoxy]benzyl}thiazolidine-2,4-dione hydrochloride (Compound B) for Delayed Elimination of Lactate caused by Administration of Metformin (hereinafter referred to as-Compound A)
Male Zucker diabetic fatty (ZDF) rats (sold by Japan Charles River, Inc.) age 10 weeks presenting diabetes-were divided into four groups consisting of a control group, a Compound A dose group (Group A), a Compound B treatment control group (Group B) and a Compound A-Compound B dose group (Group B+A). The animals of Group B and Group B+A were given free access for 1 week to Compound B mixed in powdered feed (FR-2 Powdered Laboratory Rodent Diet, Funabashi Farm Co., Ltd.) to a concentration of 0.001%. […]
Compound A was orally administered at 300 mg/kg to the animals of Group A and Group B+A one week after the start of treatment with Compound B, while the animals of the control group and Group B were orally administered dosing solvent only. […] Blood samples were collected from the caudal vein immediately before and 5, 15, 30, 45 and 60 minutes after administration of sodium lactate, and blood lactate levels were measured using the Lactate Pro LT-1710 (Arkray, Inc.). The areas under the curve for blood lactate concentration (blood lactate AUC) were calculated from blood lactate levels from 0 to 60 minutes measured for each animal. […]

`CN(C)C(=N)NC(=N)N.Cl` [Compound A, 1,1-dimethylbiguanide hydrochloride, reference compound]: the “blood lactate AUC” value is given as “increased significantly”.
